{"sequences": {"note": "By UniProt entry, the sequences of proteins in these tests, tags left out. Where a name states a change or a piece, a line headed by the entry shows the natural chain unless it says otherwise.", "UniProt Q9H211": "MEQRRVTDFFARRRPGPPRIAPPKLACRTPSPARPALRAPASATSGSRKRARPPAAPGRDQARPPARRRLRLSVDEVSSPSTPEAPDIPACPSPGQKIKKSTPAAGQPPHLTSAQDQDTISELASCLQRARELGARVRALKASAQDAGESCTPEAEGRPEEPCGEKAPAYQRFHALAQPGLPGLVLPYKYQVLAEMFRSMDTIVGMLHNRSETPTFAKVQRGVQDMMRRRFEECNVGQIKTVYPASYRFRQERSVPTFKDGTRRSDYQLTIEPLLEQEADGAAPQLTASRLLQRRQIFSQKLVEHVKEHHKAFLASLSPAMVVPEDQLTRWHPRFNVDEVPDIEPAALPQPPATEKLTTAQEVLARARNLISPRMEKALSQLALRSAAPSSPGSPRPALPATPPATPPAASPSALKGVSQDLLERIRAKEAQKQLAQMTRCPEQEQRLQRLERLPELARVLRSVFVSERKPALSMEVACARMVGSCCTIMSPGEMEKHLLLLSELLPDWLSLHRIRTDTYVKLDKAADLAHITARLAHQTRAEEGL", "UniProt O95400": "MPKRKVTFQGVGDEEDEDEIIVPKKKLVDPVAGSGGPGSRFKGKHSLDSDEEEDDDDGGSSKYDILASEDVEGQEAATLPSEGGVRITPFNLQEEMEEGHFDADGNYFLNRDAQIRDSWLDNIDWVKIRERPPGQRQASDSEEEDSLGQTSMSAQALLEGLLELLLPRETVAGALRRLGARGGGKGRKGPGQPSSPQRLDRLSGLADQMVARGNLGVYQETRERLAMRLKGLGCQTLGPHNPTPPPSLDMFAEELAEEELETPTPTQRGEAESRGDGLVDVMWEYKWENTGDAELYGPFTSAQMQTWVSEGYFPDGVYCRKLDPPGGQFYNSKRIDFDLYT", "UniProt Q9UIV1, whole entry": "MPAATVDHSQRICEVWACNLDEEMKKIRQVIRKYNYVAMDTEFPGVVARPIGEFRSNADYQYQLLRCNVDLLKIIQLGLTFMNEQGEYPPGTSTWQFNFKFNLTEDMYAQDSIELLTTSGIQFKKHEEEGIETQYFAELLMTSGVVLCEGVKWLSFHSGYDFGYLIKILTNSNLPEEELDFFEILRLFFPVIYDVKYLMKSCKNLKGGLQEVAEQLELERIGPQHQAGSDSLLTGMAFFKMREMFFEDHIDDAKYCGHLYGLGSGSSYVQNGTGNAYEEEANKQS", "UniProt Q14677": "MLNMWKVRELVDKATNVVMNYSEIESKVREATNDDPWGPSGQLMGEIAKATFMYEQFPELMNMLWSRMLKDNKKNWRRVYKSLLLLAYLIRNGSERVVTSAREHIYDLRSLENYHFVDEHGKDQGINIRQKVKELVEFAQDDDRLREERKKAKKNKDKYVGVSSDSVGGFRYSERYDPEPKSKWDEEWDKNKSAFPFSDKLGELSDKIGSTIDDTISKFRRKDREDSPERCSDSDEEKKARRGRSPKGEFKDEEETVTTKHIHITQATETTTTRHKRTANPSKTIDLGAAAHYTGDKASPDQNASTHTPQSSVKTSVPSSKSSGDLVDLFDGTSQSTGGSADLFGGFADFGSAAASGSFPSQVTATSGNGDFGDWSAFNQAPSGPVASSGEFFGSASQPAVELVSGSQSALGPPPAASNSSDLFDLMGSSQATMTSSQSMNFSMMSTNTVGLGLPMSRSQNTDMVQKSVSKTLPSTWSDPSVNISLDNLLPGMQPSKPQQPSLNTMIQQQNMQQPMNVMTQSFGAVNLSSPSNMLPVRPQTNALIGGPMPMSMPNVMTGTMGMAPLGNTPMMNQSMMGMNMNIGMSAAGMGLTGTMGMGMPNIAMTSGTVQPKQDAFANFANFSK", "UniProt P55283": "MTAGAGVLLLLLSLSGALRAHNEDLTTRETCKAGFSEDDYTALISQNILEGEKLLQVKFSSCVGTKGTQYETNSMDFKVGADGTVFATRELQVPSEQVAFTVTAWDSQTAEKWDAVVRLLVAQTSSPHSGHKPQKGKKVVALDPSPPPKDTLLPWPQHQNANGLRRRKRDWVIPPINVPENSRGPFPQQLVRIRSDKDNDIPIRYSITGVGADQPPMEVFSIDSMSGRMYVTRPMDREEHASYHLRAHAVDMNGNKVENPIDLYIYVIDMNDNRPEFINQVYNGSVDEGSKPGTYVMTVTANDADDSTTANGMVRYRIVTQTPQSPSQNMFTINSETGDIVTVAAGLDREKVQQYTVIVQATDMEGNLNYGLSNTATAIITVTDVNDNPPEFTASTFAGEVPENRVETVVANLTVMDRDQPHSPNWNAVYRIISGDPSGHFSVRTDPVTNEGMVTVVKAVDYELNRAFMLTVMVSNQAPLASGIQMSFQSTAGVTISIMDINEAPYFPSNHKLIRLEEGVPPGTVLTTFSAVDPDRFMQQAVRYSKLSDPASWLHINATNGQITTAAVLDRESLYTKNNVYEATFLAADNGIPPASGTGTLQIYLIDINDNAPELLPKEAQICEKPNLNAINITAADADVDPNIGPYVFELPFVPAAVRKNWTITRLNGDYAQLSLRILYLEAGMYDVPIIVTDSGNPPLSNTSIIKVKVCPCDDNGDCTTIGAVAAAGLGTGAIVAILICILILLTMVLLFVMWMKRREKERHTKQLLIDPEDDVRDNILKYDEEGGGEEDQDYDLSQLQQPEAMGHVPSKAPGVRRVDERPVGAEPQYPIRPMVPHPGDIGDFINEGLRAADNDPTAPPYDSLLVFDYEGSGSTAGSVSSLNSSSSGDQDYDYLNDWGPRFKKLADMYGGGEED", "UniProt Q7L5N1": "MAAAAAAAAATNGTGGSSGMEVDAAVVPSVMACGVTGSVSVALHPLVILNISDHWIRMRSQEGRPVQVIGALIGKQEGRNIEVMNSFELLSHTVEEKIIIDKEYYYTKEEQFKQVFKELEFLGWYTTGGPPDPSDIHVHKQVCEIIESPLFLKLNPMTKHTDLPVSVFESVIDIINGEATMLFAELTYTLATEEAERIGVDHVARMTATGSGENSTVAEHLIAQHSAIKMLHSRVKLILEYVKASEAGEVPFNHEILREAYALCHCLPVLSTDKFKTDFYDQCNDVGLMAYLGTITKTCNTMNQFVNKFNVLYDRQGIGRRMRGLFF", "UniProt Q9NZZ3": "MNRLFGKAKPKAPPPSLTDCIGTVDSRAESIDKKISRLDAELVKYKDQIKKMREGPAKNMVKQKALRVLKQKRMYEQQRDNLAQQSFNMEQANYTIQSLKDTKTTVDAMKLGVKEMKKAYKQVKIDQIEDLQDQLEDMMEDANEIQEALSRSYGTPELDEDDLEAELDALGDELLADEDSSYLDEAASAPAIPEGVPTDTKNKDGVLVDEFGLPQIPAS", "UniProt Q7Z6B0": "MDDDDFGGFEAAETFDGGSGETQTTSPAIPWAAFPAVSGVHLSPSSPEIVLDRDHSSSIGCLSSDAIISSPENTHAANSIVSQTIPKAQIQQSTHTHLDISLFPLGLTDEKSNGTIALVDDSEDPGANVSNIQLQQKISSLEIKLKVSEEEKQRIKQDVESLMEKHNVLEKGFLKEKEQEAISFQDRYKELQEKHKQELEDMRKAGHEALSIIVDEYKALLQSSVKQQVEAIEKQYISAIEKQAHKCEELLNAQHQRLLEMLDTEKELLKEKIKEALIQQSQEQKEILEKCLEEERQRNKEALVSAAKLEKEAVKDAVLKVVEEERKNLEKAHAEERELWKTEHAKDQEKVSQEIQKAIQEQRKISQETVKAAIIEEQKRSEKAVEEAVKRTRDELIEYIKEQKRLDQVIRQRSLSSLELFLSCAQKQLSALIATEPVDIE", "UniProt Q8WWK9": "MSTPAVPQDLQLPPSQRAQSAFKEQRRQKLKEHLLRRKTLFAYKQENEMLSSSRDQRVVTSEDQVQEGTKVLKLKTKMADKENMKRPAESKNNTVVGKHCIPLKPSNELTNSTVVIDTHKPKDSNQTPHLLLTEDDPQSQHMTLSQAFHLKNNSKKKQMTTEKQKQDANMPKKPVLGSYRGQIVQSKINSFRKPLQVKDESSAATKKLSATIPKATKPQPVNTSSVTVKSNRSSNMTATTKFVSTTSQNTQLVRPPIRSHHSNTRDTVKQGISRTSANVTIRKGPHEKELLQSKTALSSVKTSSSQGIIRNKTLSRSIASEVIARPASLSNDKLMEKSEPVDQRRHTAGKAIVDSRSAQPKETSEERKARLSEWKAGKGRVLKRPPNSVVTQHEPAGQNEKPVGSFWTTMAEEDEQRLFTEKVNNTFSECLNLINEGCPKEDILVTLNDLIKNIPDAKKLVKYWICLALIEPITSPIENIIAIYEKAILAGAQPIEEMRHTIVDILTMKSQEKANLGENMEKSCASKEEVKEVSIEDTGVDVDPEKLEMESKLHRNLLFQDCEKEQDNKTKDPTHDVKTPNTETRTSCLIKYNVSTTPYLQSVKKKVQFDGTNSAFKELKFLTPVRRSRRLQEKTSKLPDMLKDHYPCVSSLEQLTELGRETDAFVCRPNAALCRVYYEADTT", "UniProt P61024, whole entry": "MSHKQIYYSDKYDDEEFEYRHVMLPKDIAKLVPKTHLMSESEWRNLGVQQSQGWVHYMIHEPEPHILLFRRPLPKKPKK", "UniProt O60563, whole entry": "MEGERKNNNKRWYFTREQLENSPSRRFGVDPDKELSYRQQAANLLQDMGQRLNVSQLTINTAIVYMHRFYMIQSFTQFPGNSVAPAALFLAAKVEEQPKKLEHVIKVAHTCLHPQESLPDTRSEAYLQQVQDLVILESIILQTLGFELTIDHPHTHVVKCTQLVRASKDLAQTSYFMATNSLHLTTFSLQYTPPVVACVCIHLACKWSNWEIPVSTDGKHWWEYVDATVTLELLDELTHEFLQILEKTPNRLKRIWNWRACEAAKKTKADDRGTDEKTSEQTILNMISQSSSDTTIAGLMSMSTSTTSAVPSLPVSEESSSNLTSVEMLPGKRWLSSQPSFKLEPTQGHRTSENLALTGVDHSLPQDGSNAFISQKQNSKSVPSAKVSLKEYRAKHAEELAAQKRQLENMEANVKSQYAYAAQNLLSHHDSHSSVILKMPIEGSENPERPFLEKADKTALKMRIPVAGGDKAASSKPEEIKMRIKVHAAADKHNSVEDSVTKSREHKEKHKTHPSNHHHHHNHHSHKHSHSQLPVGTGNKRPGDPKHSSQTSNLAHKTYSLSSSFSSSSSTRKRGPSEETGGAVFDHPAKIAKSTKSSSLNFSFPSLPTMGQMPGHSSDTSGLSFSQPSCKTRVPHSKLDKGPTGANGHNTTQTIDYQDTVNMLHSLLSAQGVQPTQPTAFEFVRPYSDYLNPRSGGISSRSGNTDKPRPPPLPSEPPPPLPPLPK", "UniProt Q9Y678": "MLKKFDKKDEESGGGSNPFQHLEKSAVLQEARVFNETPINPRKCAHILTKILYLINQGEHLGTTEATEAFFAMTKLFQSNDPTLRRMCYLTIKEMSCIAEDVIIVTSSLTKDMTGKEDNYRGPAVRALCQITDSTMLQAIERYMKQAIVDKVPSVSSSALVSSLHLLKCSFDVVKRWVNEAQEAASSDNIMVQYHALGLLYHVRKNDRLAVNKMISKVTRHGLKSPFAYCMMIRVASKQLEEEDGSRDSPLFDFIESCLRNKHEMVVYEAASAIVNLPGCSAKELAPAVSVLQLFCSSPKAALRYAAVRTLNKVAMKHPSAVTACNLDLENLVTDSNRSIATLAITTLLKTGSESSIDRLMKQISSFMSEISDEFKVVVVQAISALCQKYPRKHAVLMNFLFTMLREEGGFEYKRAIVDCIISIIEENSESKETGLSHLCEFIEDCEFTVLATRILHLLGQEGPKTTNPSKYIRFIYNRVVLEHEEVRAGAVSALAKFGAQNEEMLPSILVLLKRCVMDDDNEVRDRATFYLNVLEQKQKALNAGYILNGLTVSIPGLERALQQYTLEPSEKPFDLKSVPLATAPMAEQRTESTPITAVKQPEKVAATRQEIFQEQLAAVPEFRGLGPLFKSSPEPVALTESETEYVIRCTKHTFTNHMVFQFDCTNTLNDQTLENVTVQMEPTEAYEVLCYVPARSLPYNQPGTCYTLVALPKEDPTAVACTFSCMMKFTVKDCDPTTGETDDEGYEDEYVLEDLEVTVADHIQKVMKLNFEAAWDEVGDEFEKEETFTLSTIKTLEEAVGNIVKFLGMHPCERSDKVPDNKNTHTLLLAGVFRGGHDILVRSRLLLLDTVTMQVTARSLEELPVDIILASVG", "UniProt P78371": "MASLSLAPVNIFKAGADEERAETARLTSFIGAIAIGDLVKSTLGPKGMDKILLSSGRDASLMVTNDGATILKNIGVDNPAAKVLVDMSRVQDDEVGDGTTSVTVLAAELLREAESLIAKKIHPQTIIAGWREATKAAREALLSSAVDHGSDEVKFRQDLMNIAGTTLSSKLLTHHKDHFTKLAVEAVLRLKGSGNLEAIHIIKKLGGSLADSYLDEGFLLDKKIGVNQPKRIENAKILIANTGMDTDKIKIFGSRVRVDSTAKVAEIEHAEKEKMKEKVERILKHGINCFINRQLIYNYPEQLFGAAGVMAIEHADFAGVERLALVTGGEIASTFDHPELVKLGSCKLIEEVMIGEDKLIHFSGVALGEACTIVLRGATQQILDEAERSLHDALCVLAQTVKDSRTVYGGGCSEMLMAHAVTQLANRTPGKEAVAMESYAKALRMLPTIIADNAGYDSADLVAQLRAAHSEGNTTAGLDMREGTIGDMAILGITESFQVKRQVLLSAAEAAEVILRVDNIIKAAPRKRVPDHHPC"}, "source": "the supplement of paper PMC7666118", "note": "The other results are listed elsewhere or left out.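 The calls were made as follows: active = dose-dependent thermal stabilisation significant by F-test of dose-response against flat model at 10% FDR; inactive = not significant.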", "data": [{"compound": "Nc1nc2c(ncn2[C@@H]2O[C@H](COP(=O)(O)OP(=O)(O)OP(=O)(O)O)[C@@H](O)[C@H]2O)c(=O)[nH]1", "test": "dose-dependent thermal stabilisation call (2D-TPP, DLPTP, 10% FDR) (binary (1 = stabilised)); higher = stabilised by the compound", "conditions": "system: Jurkat gel-filtered lysate; concentration range 1-500 µM", "method": "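2D thermal proteome profiling in gel-filtered Jurkat E6.1 lysate (2 mg/ml) treated with NaGTP (0, 1, 10, 100, 500 uM) for 10 min at room temperature, then heated 3 min at one of 12 temperatures (42-63.9 C). Soluble protein was quantified by TMT10 MS. The value is the DLPTP call of the paper: dose-dependent thermal stabilisation over all temperatures at 10% FDR (F-test of a dose-response against a flat model); one experiment, one call per tested protein.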", "values": [{"target": "CELF2 (UniProt O95319)", "dose-dependent thermal stabilisation call": "inactive: 0"}, {"target": "CLNS1A (UniProt P54105)", "dose-dependent thermal stabilisation call": "inactive: 0"}, {"target": "CHKA (UniProt P35790)", "dose-dependent thermal stabilisation call": "active: 1"}, {"target": "CDT1 (UniProt Q9H211)", "dose-dependent thermal stabilisation call": "inactive: 0"}, {"target": "CD2BP2 (UniProt O95400)", "dose-dependent thermal stabilisation call": "inactive: 0"}, {"target": "CDK12 (UniProt Q9NYV4)", "dose-dependent thermal stabilisation call": "active: 1"}, {"target": "CCNA2 (UniProt P20248)", "dose-dependent thermal stabilisation call": "inactive: 0"}, {"target": "CLASP1 (UniProt Q7Z460)", "dose-dependent thermal stabilisation call": "inactive: 0"}, {"target": "CNOT7 (UniProt Q9UIV1)", "dose-dependent thermal stabilisation call": "inactive: 0"}, {"target": "CLINT1 (UniProt Q14677)", "dose-dependent thermal stabilisation call": "inactive: 0"}, {"target": "CCT5 (UniProt P48643)", "dose-dependent thermal stabilisation call": "inactive: 0"}, {"target": "CFDP1 (UniProt Q9UEE9)", "dose-dependent thermal stabilisation call": "inactive: 0"}, {"target": "CCNB1 (UniProt P14635)", "dose-dependent thermal stabilisation call": "inactive: 0"}, {"target": "CENPF (UniProt P49454)", "dose-dependent thermal stabilisation call": "inactive: 0"}, {"target": "CHD1L (UniProt Q86WJ1)", "dose-dependent thermal stabilisation call": "active: 1"}, {"target": "CDH4 (UniProt P55283)", "dose-dependent thermal stabilisation call": "inactive: 0"}, {"target": "CLPX (UniProt O76031)", "dose-dependent thermal stabilisation call": "active: 1"}, {"target": "COPS6 (UniProt Q7L5N1)", "dose-dependent thermal stabilisation call": "inactive: 0"}, {"target": "CHMP5 (UniProt Q9NZZ3)", "dose-dependent thermal stabilisation call": "inactive: 0"}, {"target": "CNTROB (UniProt Q8N137)", "dose-dependent thermal stabilisation call": "inactive: 0"}, {"target": "CDK5RAP3 (UniProt Q96JB5)", "dose-dependent thermal stabilisation call": "inactive: 0"}, {"target": "CCDC91 (UniProt Q7Z6B0)", "dose-dependent thermal stabilisation call": "inactive: 0"}, {"target": "CLIP2 (UniProt Q9UDT6)", "dose-dependent thermal stabilisation call": "inactive: 0"}, {"target": "CKAP2 (UniProt Q8WWK9)", "dose-dependent thermal stabilisation call": "inactive: 0"}, {"target": "COPB2 (UniProt P35606)", "dose-dependent thermal stabilisation call": "inactive: 0"}, {"target": "CKS1B (UniProt P61024)", "dose-dependent thermal stabilisation call": "inactive: 0"}, {"target": "CFAP20 (UniProt Q9Y6A4)", "dose-dependent thermal stabilisation call": "inactive: 0"}, {"target": "CCDC43 (UniProt Q96MW1)", "dose-dependent thermal stabilisation call": "inactive: 0"}, {"target": "CCAR1 (UniProt Q8IX12)", "dose-dependent thermal stabilisation call": "inactive: 0"}, {"target": "CDC23 (UniProt Q9UJX2)", "dose-dependent thermal stabilisation call": "inactive: 0"}, {"target": "CPSF2 (UniProt Q9P2I0)", "dose-dependent thermal stabilisation call": "active: 1"}, {"target": "COPRS (UniProt Q9NQ92)", "dose-dependent thermal stabilisation call": "inactive: 0"}, {"target": "CCNT1 (UniProt O60563)", "dose-dependent thermal stabilisation call": "inactive: 0"}, {"target": "CHMP3 (UniProt Q9Y3E7)", "dose-dependent thermal stabilisation call": "inactive: 0"}, {"target": "COMT (UniProt P21964)", "dose-dependent thermal stabilisation call": "active: 1"}, {"target": "CEP55 (UniProt Q53EZ4)", "dose-dependent thermal stabilisation call": "inactive: 0"}, {"target": "COPG1 (UniProt Q9Y678)", "dose-dependent thermal stabilisation call": "inactive: 0"}, {"target": "CCT2 (UniProt P78371)", "dose-dependent thermal stabilisation call": "inactive: 0"}, {"target": "CEP76 (UniProt Q8TAP6)", "dose-dependent thermal stabilisation call": "inactive: 0"}, {"target": "CHEK2 (UniProt O96017)", "dose-dependent thermal stabilisation call": "inactive: 0"}]}]}
